This is one part of the list.

The chains behind the UniProt entries cited, without tags or fusion partners. Where a name states a change or a piece, a line headed by the entry shows the natural chain unless it says otherwise.
UniProt P47736: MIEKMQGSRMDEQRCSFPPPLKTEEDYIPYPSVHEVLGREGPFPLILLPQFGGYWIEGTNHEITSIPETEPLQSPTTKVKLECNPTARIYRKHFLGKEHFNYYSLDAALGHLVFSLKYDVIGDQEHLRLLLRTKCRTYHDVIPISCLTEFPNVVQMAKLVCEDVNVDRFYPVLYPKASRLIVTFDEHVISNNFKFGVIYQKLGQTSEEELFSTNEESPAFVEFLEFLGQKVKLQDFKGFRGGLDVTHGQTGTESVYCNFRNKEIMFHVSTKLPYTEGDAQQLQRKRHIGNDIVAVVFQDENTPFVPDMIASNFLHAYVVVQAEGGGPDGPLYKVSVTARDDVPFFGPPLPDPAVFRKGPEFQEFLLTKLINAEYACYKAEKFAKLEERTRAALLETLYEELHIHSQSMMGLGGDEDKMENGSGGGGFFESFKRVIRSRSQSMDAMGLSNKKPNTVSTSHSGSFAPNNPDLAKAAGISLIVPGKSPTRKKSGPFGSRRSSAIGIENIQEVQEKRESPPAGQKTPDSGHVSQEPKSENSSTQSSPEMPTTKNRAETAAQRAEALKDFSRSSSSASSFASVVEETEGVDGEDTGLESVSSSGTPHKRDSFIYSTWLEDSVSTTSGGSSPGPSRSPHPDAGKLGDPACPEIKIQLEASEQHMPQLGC
UniProt Q06609, whole entry, looked up: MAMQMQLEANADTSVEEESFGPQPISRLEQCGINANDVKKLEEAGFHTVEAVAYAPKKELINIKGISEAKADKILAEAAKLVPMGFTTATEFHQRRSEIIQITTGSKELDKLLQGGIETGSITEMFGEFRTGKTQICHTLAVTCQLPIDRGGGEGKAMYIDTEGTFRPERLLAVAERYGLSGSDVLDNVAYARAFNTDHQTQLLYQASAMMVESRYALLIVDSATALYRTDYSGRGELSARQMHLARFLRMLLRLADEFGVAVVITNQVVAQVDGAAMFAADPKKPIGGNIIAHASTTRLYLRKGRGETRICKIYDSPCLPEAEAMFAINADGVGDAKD
UniProt P54727: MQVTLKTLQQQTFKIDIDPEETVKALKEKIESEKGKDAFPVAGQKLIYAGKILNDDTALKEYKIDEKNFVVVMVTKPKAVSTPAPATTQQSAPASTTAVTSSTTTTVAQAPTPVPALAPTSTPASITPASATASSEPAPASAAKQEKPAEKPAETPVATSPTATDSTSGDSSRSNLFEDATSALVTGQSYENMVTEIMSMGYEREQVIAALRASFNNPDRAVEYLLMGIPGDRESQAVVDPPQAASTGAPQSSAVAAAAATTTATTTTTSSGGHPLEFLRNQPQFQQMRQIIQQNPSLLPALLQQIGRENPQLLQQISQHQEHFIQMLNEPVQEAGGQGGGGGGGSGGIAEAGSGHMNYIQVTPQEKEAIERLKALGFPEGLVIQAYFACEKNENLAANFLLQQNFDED
UniProt P10114: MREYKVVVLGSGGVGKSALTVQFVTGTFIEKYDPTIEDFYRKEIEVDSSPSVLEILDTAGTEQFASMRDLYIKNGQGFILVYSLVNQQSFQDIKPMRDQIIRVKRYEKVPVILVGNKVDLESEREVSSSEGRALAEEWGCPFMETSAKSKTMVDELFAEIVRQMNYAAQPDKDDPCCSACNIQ
UniProt P62491: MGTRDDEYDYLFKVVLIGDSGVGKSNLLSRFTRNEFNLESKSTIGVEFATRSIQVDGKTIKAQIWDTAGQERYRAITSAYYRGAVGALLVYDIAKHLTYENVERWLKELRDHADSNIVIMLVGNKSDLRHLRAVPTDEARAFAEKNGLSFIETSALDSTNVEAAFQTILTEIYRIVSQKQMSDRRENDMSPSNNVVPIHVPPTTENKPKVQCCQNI
UniProt Q9H0R6: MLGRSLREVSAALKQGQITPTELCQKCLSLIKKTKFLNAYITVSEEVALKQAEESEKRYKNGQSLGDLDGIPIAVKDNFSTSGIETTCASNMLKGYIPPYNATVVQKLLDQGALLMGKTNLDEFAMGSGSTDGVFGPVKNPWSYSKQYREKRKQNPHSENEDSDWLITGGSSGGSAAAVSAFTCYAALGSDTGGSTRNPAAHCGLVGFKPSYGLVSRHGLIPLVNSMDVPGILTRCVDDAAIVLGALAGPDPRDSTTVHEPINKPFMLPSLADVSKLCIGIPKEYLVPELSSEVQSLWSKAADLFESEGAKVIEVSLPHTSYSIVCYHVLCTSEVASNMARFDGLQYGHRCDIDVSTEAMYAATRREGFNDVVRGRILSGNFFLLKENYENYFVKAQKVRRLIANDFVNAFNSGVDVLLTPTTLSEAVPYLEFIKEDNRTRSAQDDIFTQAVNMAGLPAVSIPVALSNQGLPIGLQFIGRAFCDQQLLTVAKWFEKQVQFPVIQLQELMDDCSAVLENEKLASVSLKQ
UniProt P62834: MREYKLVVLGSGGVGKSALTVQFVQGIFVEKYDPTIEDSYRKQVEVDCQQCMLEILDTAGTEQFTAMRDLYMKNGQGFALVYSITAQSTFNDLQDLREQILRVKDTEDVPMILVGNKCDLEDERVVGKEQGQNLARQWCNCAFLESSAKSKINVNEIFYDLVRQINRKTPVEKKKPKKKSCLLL
UniProt P61224: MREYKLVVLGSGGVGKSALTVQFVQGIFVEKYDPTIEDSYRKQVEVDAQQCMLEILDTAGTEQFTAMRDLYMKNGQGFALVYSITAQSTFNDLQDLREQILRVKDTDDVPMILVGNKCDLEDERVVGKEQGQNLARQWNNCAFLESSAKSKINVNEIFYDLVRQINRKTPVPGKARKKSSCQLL
UniProt Q9H2T7: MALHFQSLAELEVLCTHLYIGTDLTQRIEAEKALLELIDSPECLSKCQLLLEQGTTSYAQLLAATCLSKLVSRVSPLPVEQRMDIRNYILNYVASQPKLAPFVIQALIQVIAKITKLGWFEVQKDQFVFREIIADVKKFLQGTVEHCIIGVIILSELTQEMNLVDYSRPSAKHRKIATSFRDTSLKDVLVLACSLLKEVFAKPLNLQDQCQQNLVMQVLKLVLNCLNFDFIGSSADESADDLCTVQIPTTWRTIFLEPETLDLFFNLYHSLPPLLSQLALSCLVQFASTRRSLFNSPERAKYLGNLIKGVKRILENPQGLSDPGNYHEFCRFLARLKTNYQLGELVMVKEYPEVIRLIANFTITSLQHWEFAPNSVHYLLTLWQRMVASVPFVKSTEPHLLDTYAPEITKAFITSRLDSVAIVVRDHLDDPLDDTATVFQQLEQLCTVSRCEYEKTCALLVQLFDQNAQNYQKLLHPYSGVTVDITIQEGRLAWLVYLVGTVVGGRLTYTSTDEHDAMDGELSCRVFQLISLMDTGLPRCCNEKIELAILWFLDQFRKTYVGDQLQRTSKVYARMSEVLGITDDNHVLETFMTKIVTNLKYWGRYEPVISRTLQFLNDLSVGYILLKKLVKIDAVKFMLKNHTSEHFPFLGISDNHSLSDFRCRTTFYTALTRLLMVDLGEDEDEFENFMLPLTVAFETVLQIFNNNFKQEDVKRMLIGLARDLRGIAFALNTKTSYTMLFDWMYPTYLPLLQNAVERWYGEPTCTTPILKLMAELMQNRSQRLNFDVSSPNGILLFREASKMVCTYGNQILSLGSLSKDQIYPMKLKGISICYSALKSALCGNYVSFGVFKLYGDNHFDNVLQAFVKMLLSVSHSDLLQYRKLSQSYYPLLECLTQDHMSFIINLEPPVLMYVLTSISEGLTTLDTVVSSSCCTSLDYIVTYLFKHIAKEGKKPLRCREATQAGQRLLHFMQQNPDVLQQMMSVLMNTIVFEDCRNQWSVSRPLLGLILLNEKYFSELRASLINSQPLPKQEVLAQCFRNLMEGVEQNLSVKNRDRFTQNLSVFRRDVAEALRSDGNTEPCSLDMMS
UniProt O60671: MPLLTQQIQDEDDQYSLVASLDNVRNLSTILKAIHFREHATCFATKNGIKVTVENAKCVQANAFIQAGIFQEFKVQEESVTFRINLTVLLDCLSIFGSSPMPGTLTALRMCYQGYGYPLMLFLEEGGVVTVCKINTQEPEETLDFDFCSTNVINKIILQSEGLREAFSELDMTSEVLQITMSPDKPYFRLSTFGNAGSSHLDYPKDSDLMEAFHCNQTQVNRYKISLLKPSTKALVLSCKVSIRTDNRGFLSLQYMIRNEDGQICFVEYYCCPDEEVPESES
UniProt Q7Z6M1: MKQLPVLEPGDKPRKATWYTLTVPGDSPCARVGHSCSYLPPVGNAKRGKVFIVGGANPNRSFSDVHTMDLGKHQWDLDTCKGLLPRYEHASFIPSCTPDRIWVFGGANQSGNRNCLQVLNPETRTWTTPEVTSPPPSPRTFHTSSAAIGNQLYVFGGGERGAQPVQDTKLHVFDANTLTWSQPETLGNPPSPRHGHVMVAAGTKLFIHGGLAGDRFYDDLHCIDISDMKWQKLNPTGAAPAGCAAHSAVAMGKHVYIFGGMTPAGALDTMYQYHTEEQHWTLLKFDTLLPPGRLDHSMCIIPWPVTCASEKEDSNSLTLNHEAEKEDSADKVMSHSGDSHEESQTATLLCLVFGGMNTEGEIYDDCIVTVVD
UniProt Q9UJ41, whole entry, looked up: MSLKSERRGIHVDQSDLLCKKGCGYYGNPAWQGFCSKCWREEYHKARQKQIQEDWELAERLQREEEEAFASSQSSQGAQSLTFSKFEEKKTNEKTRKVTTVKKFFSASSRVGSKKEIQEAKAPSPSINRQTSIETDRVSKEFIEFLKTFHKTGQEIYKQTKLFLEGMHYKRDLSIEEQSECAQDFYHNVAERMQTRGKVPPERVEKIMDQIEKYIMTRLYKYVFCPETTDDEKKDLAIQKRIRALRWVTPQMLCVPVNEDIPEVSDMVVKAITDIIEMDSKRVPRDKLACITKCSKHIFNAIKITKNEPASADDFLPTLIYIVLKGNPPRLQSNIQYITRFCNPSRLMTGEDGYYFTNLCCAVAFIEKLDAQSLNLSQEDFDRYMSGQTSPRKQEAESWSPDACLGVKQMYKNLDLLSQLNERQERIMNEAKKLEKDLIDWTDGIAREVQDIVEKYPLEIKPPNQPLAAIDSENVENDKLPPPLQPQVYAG
UniProt Q9UI14, whole entry, looked up: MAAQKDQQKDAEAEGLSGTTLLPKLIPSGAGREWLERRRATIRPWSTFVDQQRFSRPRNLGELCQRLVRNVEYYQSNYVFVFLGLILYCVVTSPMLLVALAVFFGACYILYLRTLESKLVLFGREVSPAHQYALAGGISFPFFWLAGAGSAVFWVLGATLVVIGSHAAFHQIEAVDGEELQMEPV
UniProt P61020: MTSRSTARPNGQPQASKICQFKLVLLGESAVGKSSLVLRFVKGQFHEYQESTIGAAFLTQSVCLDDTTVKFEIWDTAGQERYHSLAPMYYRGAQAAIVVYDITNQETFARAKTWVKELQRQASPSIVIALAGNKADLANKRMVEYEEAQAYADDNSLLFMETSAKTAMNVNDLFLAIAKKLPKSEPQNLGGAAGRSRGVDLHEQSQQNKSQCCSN
UniProt Q9NRW1: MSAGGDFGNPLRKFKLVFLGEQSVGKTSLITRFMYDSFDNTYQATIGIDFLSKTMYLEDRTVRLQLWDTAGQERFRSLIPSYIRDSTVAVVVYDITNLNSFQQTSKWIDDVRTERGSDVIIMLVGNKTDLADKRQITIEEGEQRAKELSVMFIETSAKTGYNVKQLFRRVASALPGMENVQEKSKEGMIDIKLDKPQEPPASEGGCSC
UniProt P20339: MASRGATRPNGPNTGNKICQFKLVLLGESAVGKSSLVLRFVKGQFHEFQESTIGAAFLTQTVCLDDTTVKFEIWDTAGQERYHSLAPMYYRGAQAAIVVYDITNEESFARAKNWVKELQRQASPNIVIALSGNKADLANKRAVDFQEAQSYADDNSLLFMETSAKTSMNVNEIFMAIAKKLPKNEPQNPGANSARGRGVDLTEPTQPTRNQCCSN
UniProt Q969Q5: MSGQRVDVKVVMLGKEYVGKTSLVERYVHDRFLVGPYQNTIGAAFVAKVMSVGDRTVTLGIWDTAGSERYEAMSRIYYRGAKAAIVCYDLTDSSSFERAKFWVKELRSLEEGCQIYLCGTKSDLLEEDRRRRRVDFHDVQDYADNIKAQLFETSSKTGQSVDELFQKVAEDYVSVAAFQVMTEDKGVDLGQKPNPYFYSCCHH
UniProt P61026: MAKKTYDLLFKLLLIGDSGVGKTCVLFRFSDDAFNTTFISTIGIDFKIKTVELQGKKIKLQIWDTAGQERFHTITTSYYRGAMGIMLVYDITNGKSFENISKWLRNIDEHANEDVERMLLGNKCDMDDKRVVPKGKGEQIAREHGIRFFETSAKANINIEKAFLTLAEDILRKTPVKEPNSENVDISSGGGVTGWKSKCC
UniProt Q92930: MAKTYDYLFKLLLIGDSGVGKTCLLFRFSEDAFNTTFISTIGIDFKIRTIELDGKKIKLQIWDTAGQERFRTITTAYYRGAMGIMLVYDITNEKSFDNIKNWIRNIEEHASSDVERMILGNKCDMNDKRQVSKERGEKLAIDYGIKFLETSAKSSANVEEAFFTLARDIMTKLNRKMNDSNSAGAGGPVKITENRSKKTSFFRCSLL
UniProt Q9Y3L5: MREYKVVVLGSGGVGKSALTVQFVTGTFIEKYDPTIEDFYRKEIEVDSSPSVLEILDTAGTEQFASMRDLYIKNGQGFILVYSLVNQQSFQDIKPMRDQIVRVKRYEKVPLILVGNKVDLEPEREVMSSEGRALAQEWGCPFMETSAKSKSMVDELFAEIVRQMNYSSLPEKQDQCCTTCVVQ

Compound in the first test: C1=CC2=NC=CN=C2C=C1/C=C/3\C(=O)NC(=O)S3
The test is described as follows: log2 fold change, soluble protein after heating vs DMSO (PISA); higher = thermal stabilisation; K562 lysate, 10 uM; active = over 0.2 and 3.5 SD of the protein, either way, in both replicates (recomputed). In a few lines: (§1)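 The values are log-two fold changes in thermal stability compared with solvent controls and come from duplicates. They were obtained by TMTpro 16plex LC-MS/MS, with channel sums equalised, on the supernatant after 21,000xg for 90 min. That supernatant came from crude K562 extract at 1 mg/mL protein treated with 10 μM compound for 30 min, heated for 3 min across 48°C-58°C, pooled and brought to 0.5% NP-40 at 4°C.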
Consider RAP1GAP isoform 4 (UniProt P47736), for which the log2 fold change was inactive: -0.019.

As for RAD51 (UniProt Q06609), the log2 fold change was inactive: -0.055.

On to RAD23B (UniProt P54727), for which the log2 fold change is inactive: -0.005.

Turning to RAP2A (UniProt P10114), the log2 fold change was inactive: -0.068.

Turning to RAB11A (UniProt P62491), the log2 fold change is inactive: -0.027.

For QRSL1 (UniProt Q9H0R6), the log2 fold change was inactive: -0.111.

In the case of RAP1A (UniProt P62834), the log2 fold change is inactive: -0.011.

On to RAP1B (UniProt P61224), for which the log2 fold change was inactive: -0.031.

On to RAPGEF2, A0A2R8YGD3, for which the log2 fold change is inactive: -0.083.

Regarding RANBP17 (UniProt Q9H2T7), the log2 fold change was inactive: 0.066.

Compound in another test: C1=CC=C(C=C1)C2=NC(=C(N2)C3=CC=NC=C3)C4=CC(=C(C=C4)Cl)O
The test is described as above. In a few lines: as §1
Consider RACGAP1 (UniProt Q9H0H5), for which the log2 fold change is inactive: 0.022.

Turning to RAD1 (UniProt O60671), the log2 fold change was inactive: 0.027.

Take RAC2 (UniProt P15153): the log2 fold change is inactive: 0.012.

RABEPK (UniProt Q7Z6M1): the log2 fold change was inactive: 0.007.

Take RANBP9 (UniProt Q96S59): the log2 fold change is inactive: 0.002.

Consider RAD51C (UniProt O43502), for which the log2 fold change was inactive: 0.001.

As for RABGEF1 isoform 3 (UniProt Q9UJ41), the log2 fold change was inactive: 0.012.

Turning to RANBP6 (UniProt O60518), the log2 fold change is inactive: 0.027.

With RABEP1 (UniProt Q15276), the log2 fold change was inactive: -0.015.

In the case of RALGAPA1 isoform 6 (UniProt Q6GYQ0), the log2 fold change was inactive: -0.064.

Consider RABAC1 (UniProt Q9UI14), for which the log2 fold change was inactive: 0.

As to RAB5B (UniProt P61020), the log2 fold change is inactive: 0.015.

As to RAB6B (UniProt Q9NRW1), the log2 fold change is inactive: 0.001.

For RAB5A (UniProt P20339), the log2 fold change is inactive: 0.015.

Consider RAB24 (UniProt Q969Q5), for which the log2 fold change was inactive: 0.015.

For PYCR3 (UniProt Q53H96), the log2 fold change is inactive: -0.003.

In the case of RAB10 (UniProt P61026), the log2 fold change was inactive: -0.025.

For RAN (UniProt P62826), the log2 fold change was inactive: 0.003.

With RAP2B (UniProt P61225), the log2 fold change was inactive: -0.009.

For the target RAB8B (UniProt Q92930), the log2 fold change was inactive: 0.034.

RAB6A isoform 4 (UniProt P20340): the log2 fold change is inactive: -0.023.

Regarding RAB20 (UniProt Q9NX57), the log2 fold change is inactive: -0.003.

For the target RAP2C (UniProt Q9Y3L5), the log2 fold change was inactive: -0.024.

For the target RAP1GAP isoform 4 (UniProt P47736), the log2 fold change was inactive: -0.012.

Regarding RAD51 (UniProt Q06609), the log2 fold change is inactive: 0.068.

With RAD23B (UniProt P54727), the log2 fold change is inactive: -0.001.

In the case of RAP2A (UniProt P10114), the log2 fold change is inactive: 0.026.

On to RAB11A (UniProt P62491), for which the log2 fold change was inactive: -0.018.

On to QRSL1 (UniProt Q9H0R6), for which the log2 fold change was inactive: 0.002.

As for RAP1A (UniProt P62834), the log2 fold change was inactive: 0.006.

For RAP1B (UniProt P61224), the log2 fold change was inactive: 0.006.

For the target RAPGEF2, A0A2R8YGD3, the log2 fold change was inactive: -0.047.

RANBP17 (UniProt Q9H2T7): the log2 fold change is inactive: 0.035.

Compound in a further test: C1=CC=C2C(=C1)C3=NNC4=CC=CC(=C43)C2=O
The description is as above. In a few lines: as §1
Regarding RACGAP1 (UniProt Q9H0H5), the log2 fold change is inactive: -0.023.

Take RAD1 (UniProt O60671): the log2 fold change is inactive: -0.016.

Turning to RAC2 (UniProt P15153), the log2 fold change is inactive: 0.034.

As to RABEPK (UniProt Q7Z6M1), the log2 fold change is inactive: -0.024.

As for RANBP9 (UniProt Q96S59), the log2 fold change was inactive: -0.009.

Consider RAD51C (UniProt O43502), for which the log2 fold change was inactive: -0.004.

For the target RABGEF1 isoform 3 (UniProt Q9UJ41), the log2 fold change was inactive: -0.017.

With RANBP6 (UniProt O60518), the log2 fold change is inactive: 0.021.

Consider RABEP1 (UniProt Q15276), for which the log2 fold change is inactive: -0.023.

RALGAPA1 isoform 6 (UniProt Q6GYQ0): the log2 fold change was inactive: -0.015.

Turning to RABAC1 (UniProt Q9UI14), the log2 fold change is inactive: 0.014.

Consider RAB5B (UniProt P61020), for which the log2 fold change is inactive: 0.006.

Regarding RAB6B (UniProt Q9NRW1), the log2 fold change was inactive: 0.024.

In the case of RAB5A (UniProt P20339), the log2 fold change is inactive: 0.023.

Turning to RAB24 (UniProt Q969Q5), the log2 fold change is inactive: -0.006.

As for PYCR3 (UniProt Q53H96), the log2 fold change was inactive: 0.

Regarding RAB10 (UniProt P61026), the log2 fold change was inactive: 0.041.

In the case of RAN (UniProt P62826), the log2 fold change is inactive: 0.

As to RAP2B (UniProt P61225), the log2 fold change is inactive: -0.032.

Take RAB8B (UniProt Q92930): the log2 fold change was inactive: 0.125.

On to RAB6A isoform 4 (UniProt P20340), for which the log2 fold change is inactive: -0.073.

Turning to RAB20 (UniProt Q9NX57), the log2 fold change is inactive: -0.01.

On to RAP2C (UniProt Q9Y3L5), for which the log2 fold change was inactive: -0.07.

Regarding RAP1GAP isoform 4 (UniProt P47736), the log2 fold change is inactive: -0.005.

Turning to RAD51 (UniProt Q06609), the log2 fold change is inactive: -0.027.

On to RAD23B (UniProt P54727), for which the log2 fold change was inactive: 0.006.

With RAP2A (UniProt P10114), the log2 fold change is inactive: 0.022.

In the case of RAB11A (UniProt P62491), the log2 fold change is inactive: 0.07.

As for QRSL1 (UniProt Q9H0R6), the log2 fold change was inactive: 0.116.

RAP1A (UniProt P62834): the log2 fold change is inactive: 0.001.

RAP1B (UniProt P61224): the log2 fold change was inactive: -0.014.

On to RAPGEF2, A0A2R8YGD3, for which the log2 fold change is inactive: 0.053.

As to RANBP17 (UniProt Q9H2T7), the log2 fold change is inactive: -0.024.

These data come from the supplement of paper PMC10849652.
